Measured values as given in patent US20250129170A1.
Substitutions are numbered along the chain they refer to. No constants are given. Whether binding was seen depends on the method and setting. Some results given as binding are weak or reduced against the parent protein; the word gives no strength. Values belong to the binder of their own block, whether it stands above or below them.

Protein sequences, listed by entry. Tags and fused reporters are not part of them. Residues count along the entry.
UniProt P32927, residues 17-443: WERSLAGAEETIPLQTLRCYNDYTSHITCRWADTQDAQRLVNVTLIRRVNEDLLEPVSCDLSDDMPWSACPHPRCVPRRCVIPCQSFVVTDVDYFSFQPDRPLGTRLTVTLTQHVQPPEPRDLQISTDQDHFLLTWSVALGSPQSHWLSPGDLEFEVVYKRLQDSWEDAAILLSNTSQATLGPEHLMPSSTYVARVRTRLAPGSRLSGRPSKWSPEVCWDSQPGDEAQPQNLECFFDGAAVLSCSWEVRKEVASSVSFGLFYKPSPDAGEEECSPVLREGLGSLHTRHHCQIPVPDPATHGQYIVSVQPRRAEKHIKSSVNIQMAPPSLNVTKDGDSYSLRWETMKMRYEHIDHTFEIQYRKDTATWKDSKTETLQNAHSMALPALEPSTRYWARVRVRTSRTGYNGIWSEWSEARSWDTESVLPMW

Key:
[1] = molecular target: hCD131-Fc (IME021, inhouse) (human) (UniProt P32927); assay: B-cell sorting, labelled hEPOR-Fc and hCD131-Fc
[2] = molecular target: hCD131-Fc (IME021, inhouse) (human) (UniProt P32927); assay: B-cell sorting with labelled hCD131-Fc, then single-cell sequencing

- binding [1]: binds
B1: clonotype307 (EPOR/CD131 binder, Table 8) (antibody, V domains shown)
VH: QITLKESGPTLVKPTQTLTLTCTFSGFSISTSGVGVGWIRQPPGKALEWLAFIFWNDDKRYSPSLKSRLTITKDTSKNQVVLTMTNMDPVDTATYYCTHTEYGSSWSVDYWGQGTLVTVSS
VL: QAVLTQPASLSASPGASASLTCTLRSGINVGTSRIYWYQQKPGSPPQYLLRYKSDSDKHQDSGVPSRFSGSKDASANAGILLISGLQSEDEADYYCMIWHSSAVVFGGGTKLTVL

- binding [2]: binds
B2: anti-CD131 antibody clonotype36 (Table 6) (antibody, V domains shown)
VH: QVQLQQWGAGLLKPSETLSLTCAVYGGSFSGYYWSWIRQPPGKGLEWIGEINHSGSTNYNPSLKSRVTISVDTSKNQFSLKLSSVTAADTAVYYCAREGLLVGATLDAFDIWGQGTMVTVSS
VL: SSELTQDPAVSVALGQTVRITCQGDSLRSYYASWYQQKPGQAPVLVIYGKNNRPSGIPDRFSGSSSGNTASLTITGAQAEDEADYYCNSRDSSGNHLVFGTGTKVTVL

- binding [1]: binds
B3: clonotype296 (EPOR/CD131 binder, Table 8) (antibody, V domains shown)
VH: QVQLVQSGAEVKKPGASVKVSCKASGYTFTSYGISWVRQAPGQGLEWMGWISAYNGNTNYAQKLQGRVTMTTDTSTSTAYMELRSLRSDDTAVYYCARDGAARPPRYMDVWGKGTTVTVSS
VL: B2 VL with T101G, V105L

- binding [1]: binds
B4: clonotype300 (EPOR/CD131 binder, Table 8) (antibody, V domains shown)
VH: EVQLVESGGGLVQPGGSLRLSCAASGFTFSSYWMHWVRQAPGKGLVWVSRVNSDGSNTTYADSVKGRFTISRDNAKNTLYLQMNSLRAEDTAVYYCARNRDYHGSGSFDYWGQGTLVTVSS
VL: B2 VL with K50Q, L97W, T101G, V105L

- binding [1]: binds
B5: clonotype298 (EPOR/CD131 binder, Table 8) (antibody, V domains shown)
VH: QVQLVQSGSEVKKPGASVKVSCKASGYTFTGYYMYWVRQAPGQGLEWMGWINPNSGGTNYAQKFQDRVTMTRDTSISTAYMELSRLRSDDTAIYYCARDLDYYGSGNYDYWGQGTLVTVSS
VL: B2 VL with G94D, L97R, T101G, V105L

- binding [1]: binds
B6: clonotype301 (EPOR/CD131 binder, Table 8) (antibody, V domains shown)
VH: QVQLQQSGPGLVKPSQTLSLTCAISGDNVSSNSAAWNWIRQSPSRGLEWLGRTYYRSKWYNDYAVSVKSRITINPDTSKNQFSLHLNSVTPEDTALYYCARDWNFAFDIWGQGTMVTVSS
VL: B2 VL with T101G, V105L

- binding [1]: binds
B7: clonotype309 (EPOR/CD131 binder, Table 8) (antibody, V domains shown)
VH: QVQLVQSGAEVKKPGASVKVSCKASGYTFTSYDINWVRQATGQGLEWMGWMNPNSGNTGYAQKFQGRVTMTRNTSISTAYMELSSLRSEDTAVYYCVRRITVVRGVISLDYWGQGTLVTVSS
VL: SYELTQPPSVSVSPGQTAIITCSGAKLGDKYACWYQKKPGQSPVMVIYQDRKRPSGIPERFSGSNSGNTATLTISGTQAMDEADYYCQAWDSSTAVFGGGTKLTVL

- binding [2]: binds
B8: anti-CD131 antibody clonotype52 (Table 6) (antibody, V domains shown)
VH: EVQLVESGGGLVKPGGSLRLSCIASGFTFSTYSMNWVRQAPGKGLEWVSSISGSSSYIYYSDSVKGRFTISRDNAKNSLYLQLNSLRAEDTAVYYCASHWGHFDYWGRGTLVTVSS
VL: SYELTQPLSVSVALGQTARITCGGNNIGSKNVHWYQQKPGQAPVLVIYRDSNRPSGIPERFSGSNSGNTATLTISRAQAGDEADYYCQVWDSSTVVFGGGTKLTVL

- binding [2]: binds
B9: anti-CD131 antibody clonotype15 (Table 6) (antibody, V domains shown)
VH: EVQLVESGGGLVQPGGSLRLSCAASGFTFSSYSMNWVRQAPGKGLEWVSYISSSSSTIYYADSVKGRFTISRDNAKNSLYLQMNSLRDEDTAVYYCARDGWDYWGQGTLVTVSS
VL: SYELTQPSSVSVSPGQTARITCSGDVLAKKYARWFQQKPGQAPVLVIYKDSERPSGIPERFSGSSSGTTVTLTISGAQVEDEADYYCYSAADNNRVFGGGTKLTVL

- binding [2]: binds
B10: anti-CD131 antibody clonotype14 (Table 6) (antibody, V domains shown)
VH: EVQLVESGGGVVRPGGSLRLSCAASGFTFDDYGMSWVRQAPGKGLEWVSGINWNGGSTGYADSVKGRFTISRDNAKNSLYLQMNSLRAEDTALYYCARERLTIFGVVNYYMDVWGKGTTVTVSS
VL: QSVLTQPPSVSGAPGQRVTISCTGSSSNIGAGYDVHWYQQLPGTAPKLLIYGNSNRPSGVPDRFSGSKSGTSASLAITGLQAEDEADYYCQSYDSSLSGWVFGGGTKLTVL

- binding [1]: binds
B11: clonotype305 (EPOR/CD131 binder, Table 8) (antibody, V domains shown)
VH: EVHLVESGGGLVQPGRSLRLSCAASGFTFDEYAMHWVRQVPGKGLEWVSGISWNSGSIGYADSVKGRFTISRDNAKNSLYLQMNSLRAEDTALYYCAKDIFTGRAGYFDYWGQGTLVTVSS
VL: B10 VL

- binding [1]: binds
B12: clonotype304 (EPOR/CD131 binder, Table 8) (antibody, V domains shown)
VH: EVQLVESGGGLVKPGGSLRLSCAASGFTFSRYSMNWVRQAPGKGLEWVSSIISSTSYIYYADSVKGRFTISRDNAKNSLYLQMNSLRAEDTAVYYCARETPVTLFDAFDIWGQGTMVTVSS
VL: B10 VL with G32R, Q40L, T44S, G52D, N55D, K68R, Y89F, W100S

- binding [1]: binds
B13: clonotype302 (EPOR/CD131 binder, Table 8) (antibody, V domains shown)
VH: QVQLVQSGAEVKKPGASVKVSCKASGYTFTSYGITWVRQAPGQGLEWMGWISAYNGNTHYAQKLQGRVTMTTDTSTSTAYMDLRSLRSDDTAVYYCARTIFGVVNNWFDPWGQGTLVTVSS
VL: QSVLSQPPSVSEAPRQRVTISCSGSSSNIGYNAVNWYQQLPGKAPKLLISHDDLLPSGVSDRFSGSKSGTSASLAISGLQSDDEADYYCAAWDARLNGWVFGGGTKLTVL

- binding [1]: binds
B14: clonotype308 (EPOR/CD131 binder, Table 8) (antibody, V domains shown)
VH: EVQLVESGGGVVRPGGSLRLSCAASGFTFDDYGMSWVRQAPGKGLEWVSGINWNGGSTGYADSVKGRFTISRDNAKNSLYLQMNSLRAEDTALYYCARHFDWLLSNAFDIWGQGTMVTVSS
VL: QAVLTQPASLSASPGASASLTCTLRSGINVGTYRIYWYQQKPGSPPQYLLRYKSDSDKQQGSGVPSRFSGSKDASANAGILLISGLQSEDEADYYCMIWHSSASVVFGGGTKLTVL

- binding [2]: binds
B15: anti-CD131 antibody clonotype8 (Table 6) (antibody, V domains shown)
VH: QLQLQESGPGLVKPSETLSLTCTVSGGSISSSSYYWGWIRQPPGKGLEWIGSIYYSGSTYYNPSLKSRVTISVDTSKNQFSLKLSSVTAADTAVYYCASLTGDRFDYWGQGTLVTVSS
VL: QSALTQPASVSGSPGQSITISCTGTSSDVGGYNYVSWYQQHPGKAPKLMIYEVSNRPSGVSNRFSGSKSGNTASLTISGLQAEDEADYYCSSYTSSSTVVFGGGTKLTVL

- binding [2]: binds
B16: anti-CD131 antibody clonotype127 (Table 6) (antibody, V domains shown)
VH: EVQLVESGGGLVQPGGSLKLSCAASGFTFSGSAMHWVRQASGKGLEWVGRIRSKANSYATAYAASVKGRFTISRDDSKNTAYLQMNSLKTEDTAVYYCTGPFDYWGQGTLVTVSS
VL: B15 VL with V99W

- binding [2]: binds
B17: anti-CD131 antibody clonotype126 (Table 6) (antibody, V domains shown)
VH: QVQLVQSGAEVKKPGASVKVSCKTSGYTFTSFGISWVRQAPGQGLEWMGWISAYNDNINYAQKLQDRVTMTTDTSTSTACMELRSLRSDDTAVYFCARGASFDFWGQGTLVTVSS
VL: B15 VL with N55D, S95R, V99C

- binding [2]: binds
B18: anti-CD131 antibody clonotype25 (Table 6) (antibody, V domains shown)
VH: QVQLVQSGAEVKKPGASVKVSCKASGYTFTSYGISWVRQAPGQGLEWMGWISAYNGNTNYAQKLQGRVTMTTDTSTSTAYMELRSLRSDDTAVYYCARENSGSYYWFDPWGQGTLVTVSS
VL: QSALTQPPSASGSPGQSVTISCTGTSSDVGGYNYVSWYQQHPGKAPKLMIYEVSKRPSGVPDRFSGSKSGNTASLTVSGLQAEDEADYYCSSYAGSNNVVFGGGTKLTVL

- binding [2]: binds
B19: anti-CD131 antibody clonotype45 (Table 6) (antibody, V domains shown)
VH: QVQLQQWGAGLLKPSETLSLTCAVYGGSFSGYYWSWIRQPPGKGLEWIGEINHSGSTNYNPSLKSRVTISVDTSKNQFSLKLSSVTAADTAVYYCARTSLAAADFDYWGQGTLVTVSS
VL: B18 VL with V99Y, G103T, L107V

- binding [2]: binds
B20: anti-CD131 antibody clonotype116 (Table 6) (antibody, V domains shown)
VH: QVQLVQSGAEAKKPGASVKVSCMASGYTFTTYGISWVRQAPGQGLEWMGWISAYNGNTKYAQKLQGRVTMTTDTSTRTAYMELRSLRSDDTAVYYCARQIGDYWGQGTLVTVSS
VL: B18 VL with S54I, S92A, K106Q

- binding [2]: binds
B21: anti-CD131 antibody clonotype16 (Table 6) (antibody, V domains shown)
VH: EVQLVESGGGLVQPGGSLKLSCAASGFTFSSSDMHWVRQTTGKGLEWVSAIYTTGDTYYPGSVKGRFTISRENAKNSLYLQMNSLRAGDTAVYYCARGYSGSYYGDFDYWGQGTLVTVSS
VL: SYELTQPPSVSVSPGQTARITCSGDALPKKYAYWYQQKSGQAPVLVIYEDSKRPSGIPERFSGSSSGTMATLTISGAQVEDEADYYCYSTDSSGNRVFGGGTKLTVL

- binding [2]: binds
B22: anti-CD131 antibody clonotype115 (Table 6) (antibody, V domains shown)
VH: EVQLVESGGGLVQPGGSLRLSCAASGFTFSSYDMHWVRQATGKGLEWVSAIGTAGDTYYPGSVKGRFTISRENAKNSLYLQMNSLRAGDTAVYYCARDRTLDYWGQGTLVTVSS
VL: SYELTQPPSVSVSPGQTARITCSGDALPKKYAYWYQQKSGQAPVLVIYEDSKRPSGIPERFSGSSSGTMATLTISGAQVEDEADYYCYSTDSSGNHWVFGGGTKLTVL

- binding [2]: binds
B23: anti-CD131 antibody clonotype123 (Table 6) (antibody, V domains shown)
VH: EVQLVESGGGLVKPGGSLRLSCAASGFTFSDAWMYWDRQAPGKGLEWVGRIKSKTDGGTTDYAAPVKGRFTISRDDSKNTLYLQMNSLKTEDTAVYYCRADMDVWGKGTTVTVSS
VL: B22 VL with T90I, W97R
